# Test results published in PubChem BioAssay AID595 (National Center for Advancing Translational Sciences (NCATS), 2007).
# Several values for one entry are separate records, joined by “and”; a condition that tells them apart may be missing. Equal values may be shown once. In all, about 71,000 compounds went through this assay and about 310 (0.44%) were called active. Inconclusive means that the source gave no clear call. Such entries were picked first, then a sample of the others. The call rests on the fitted dose curve; in most records, active means well fitted curve in either direction with a large enough effect; inconclusive means small, poorly fitted or top-dose-only effect, or another doubt; inactive means flat fitted curve, though single readings scatter. A potency beside an inconclusive call is a rough fit, not a confirmed value.
# System: Hsp90 C-terminal peptide / TPR2A (Hop) interaction, human
# Test: qHTS Assay for Disrupters of an Hsp90 Co-Chaperone Interaction
# Conditions: AlphaScreen TPR2A-His6 binding biotin-Hsp90 C-terminal peptide
# [1] = activity change, negative = inhibition: at 57 µM (top of the series) unless noted
# On the % scale 0 is the no-effect control and ±100 the full control effect; potency means the concentration at half of the fitted maximal effect.
smiles,measurement,setting,value
Cc1cc2ccc(OC(=O)c3ccc(N=C(N)N)cc3)cc2oc1=O,"activity change, negative = inhibition",[1],inactive: -2.13% [at 11 µM]
Fc1ccc2nc3[nH]c4ccccc4c3nc2c1,"activity change, negative = inhibition",[1],inactive
CCOc1ccc(NC(=O)N2CCN(CC)CC2)cc1,"activity change, negative = inhibition",[1],inconclusive: 41.6%
CCn1cc(-c2cc(C(F)(F)F)n3nc(C(=O)O)cc3n2)c(C)n1,"activity change, negative = inhibition",[1],inconclusive: 40.6%
CC(Sc1ccc2nnc(-c3ccc(F)cc3)n2n1)C(=O)O (configuration not stated),"activity change, negative = inhibition",[1],inactive
CSc1nnc(-c2ccncc2)n1CCCN1CCCC1=O,"activity change, negative = inhibition",[1],inconclusive: 43.6%
Cc1cc(C)c2nc(N3CCCC(C(=O)N4CCC(C(N)=O)CC4)C3)sc2c1 (configuration not stated),"activity change, negative = inhibition",[1],inactive
Cn1c2ccc(Cl)cc2c2nc3ccccc3nc21,Potency,[1],"inconclusive: 25.1 µM [activator, single point]"
O[C@@](CCN1CCCCC1)(c1ccccc1)C1CCCCC1,"activity change, negative = inhibition",[1],inactive
CCOCCCNC(=O)C(NC(=O)CNC(C)=O)c1ccc(Cl)cc1 (configuration not stated),"activity change, negative = inhibition",[1],inconclusive: 48.3%
CCCCn1c(SCc2cc(=O)n3ccsc3n2)nc2cc(C(=O)OC)ccc2c1=O,"activity change, negative = inhibition",[1],inconclusive: 31.1%
COC(=O)c1[nH]c2ccc(C)cc2c1NC(=O)Nc1ccccc1OC,"activity change, negative = inhibition",[1],inactive
COc1ccc(C)cc1S(=O)(=O)N(C)CC(=O)Nc1ccccc1,"activity change, negative = inhibition",[1],inconclusive: 40.5%
Cn1c(=O)oc2cc(S(=O)(=O)NCCC(=O)N3CCc4ccccc43)ccc21,"activity change, negative = inhibition",[1],inactive
CCOC(=O)c1cc2occc2n1CCCN1C(=O)c2ccccc2C1=O,"activity change, negative = inhibition",[1],inconclusive: 67.9%
COc1ccc(-c2nc3cnccn3c2Nc2ccc3c(c2)OCO3)cc1,Potency,[1],"inconclusive: 20 µM [inhibitor, single point]"
CN(C)c1ccc(C(=C2C=CC(=[N+](C)C)C=C2)c2ccccc2)cc1,Potency,[1],"inconclusive: 12.6 µM [inhibitor, partial curve]"
Clc1ccc(C(c2ccccc2Cl)C(Cl)Cl)cc1 (configuration not stated),Potency,[1],"inconclusive: 31.6 µM [activator, partial curve]"
C(=N/n1c2ccccc2c2ccccc21)/c1ccco1,Potency,[1],"inconclusive: 7.94 µM [inhibitor, partial curve]"
O=C(Nc1cccnc1)c1cc2nc(C3CC3)cc(C(F)(F)F)n2n1,"activity change, negative = inhibition",[1],inconclusive: 50.3%
O=C(c1cccc(F)c1)N1CCN(C(=O)c2cc(-c3ccc(Cl)cc3Cl)on2)CC1,"activity change, negative = inhibition",[1],inconclusive: 62.5%
COc1cccc2c1NC(C(=O)O)C1CC=CC21 (configuration not stated),"activity change, negative = inhibition",[1],inactive
CCC(C)NC(=O)CCS(=O)(=O)c1ccc2c(c1)n(C)c(=O)c(=O)n2C (configuration not stated),"activity change, negative = inhibition",[1],inconclusive: 48.6% [at 2.3 µM]
NC(N)=NCCCCN=C(N)N,"activity change, negative = inhibition",[1],inconclusive: 68.3% [at 26 µM]
same,"activity change, negative = inhibition",at 57 µM (top of the series),inactive: -5.77% and inactive: 1.96%
CCCCOc1ccccc1Cn1c(=O)oc2ccccc21,Potency,[1],"inconclusive: 25.1 µM [activator, single point]"
O=C1c2oc3ccc(Cl)cc3c(=O)c2C(c2cccc(Br)c2)N1CCO (configuration not stated),Potency,[1],"inconclusive: 25.1 µM [inhibitor, partial curve]"
O=c1c(CCc2ccccc2)nc2cnc(N3CCOCC3)nc2n1C[C@H]1CCCO1,"activity change, negative = inhibition",[1],inactive
COCCCn1c(=N)c(C(=O)NCC2CCCO2)cc2c(=O)n3ccccc3nc21 (configuration not stated),"activity change, negative = inhibition",[1],inactive
Cc1ccc(Cn2c(=S)[nH]c3ccc(N4CCOCC4)cc3c2=O)o1,"activity change, negative = inhibition",[1],inconclusive: 31.5%
C=CCSc1nc2c(c(=O)[nH]c(=O)n2C)n1C/C=C(/C)Cl,"activity change, negative = inhibition",[1],inactive
COC(=O)c1ccc(CC(=O)c2c(C)cc(O)cc2O)o1,"activity change, negative = inhibition",[1],inactive
Cc1cc(C)c2c(n1)sc1c(N3CCOCC3)ncnc12,"activity change, negative = inhibition",[1],inconclusive: 49.7%
Cc1cc(=O)oc(C)c1C(=O)NCc1ccccn1,Potency,[1],"inconclusive: 31.6 µM [inhibitor, single point]"
Cc1noc(C)c1COC(=O)c1ccccc1Sc1ccccc1C#N,"activity change, negative = inhibition",[1],inconclusive: 138%
COc1ncc2nc(-c3cn(C)c4ccccc34)c(=O)n(C)c2n1,"activity change, negative = inhibition",[1],inactive
COc1ccc(-n2c(C)nnc2SCC(=O)N2C(C)CCCC2C)cc1 (configuration not stated),"activity change, negative = inhibition",[1],inconclusive: 44.4%
O=C1c2c(O)cc(O)cc2O[C@@H](c2ccc(O)c(O)c2)[C@H]1O,Potency,[1],"inconclusive: 12.6 µM [inhibitor, partial curve]"
Cc1ccc(-c2cc(C(F)F)nc(NCC3CCCO3)n2)cc1 (configuration not stated),Potency,[1],"inconclusive: 31.6 µM [activator, single point]"
CC(C(=O)Nc1ccc(S(=O)(=O)N2CCOCC2)cc1)N(c1ccccc1)S(C)(=O)=O (configuration not stated),"activity change, negative = inhibition",[1],inconclusive: 25.1%
Cc1cc(C)nc(SCc2cccc(C(=O)O)c2)n1,"activity change, negative = inhibition",[1],inconclusive: 45.5%
CCn1c(=O)c(C(=O)NCCc2ccccc2)c(O)c2ccccc21,Potency,[1],"inconclusive: 31.6 µM [activator, single point]"
Cc1cc(C)c2c(n1)nn1c(N3CCN(Cc4ccccc4)CC3)cc(C)nc21,"activity change, negative = inhibition",[1],inconclusive: 52%
O=C(O)c1c2c(c(O)c3c1CN(C1CCCCC1)CO3)OCN(C1CCCCC1)C2,"activity change, negative = inhibition",[1],inconclusive: 86.6% [at 11 µM]
COc1ccc(OC)c(Nc2nc(-c3sc(N)nc3C)cs2)c1,Potency,[1],"inconclusive: 25.1 µM [inhibitor, single point]"
Cc1ccc(-c2nnn(CC(=O)N(Cc3cccs3)C(C(=O)NC3CCCC3)c3ccco3)n2)o1 (configuration not stated),"activity change, negative = inhibition",[1],inactive
O=c1cc(-c2ccc(O)c(O)c2)oc2cccc(O)c12,"activity change, negative = inhibition",[1],inactive
COC(=O)c1cc(Cc2ccc(N)c(C(=O)OC)c2)ccc1N,"activity change, negative = inhibition",[1],inconclusive: 65.5%
CCCOc1ccc(C(=O)Nn2c(C)nc3ccccc3c2=O)cc1,"activity change, negative = inhibition",[1],inconclusive: 61.3%
O=C(Nc1nncs1)c1ccccc1Br,"activity change, negative = inhibition",[1],inactive
CC1=C(C(=O)N(C)Cc2ccccc2)C2(CCC(C)CC2)OC1=O (configuration not stated),"activity change, negative = inhibition",[1],inconclusive: 53.5%
Cc1cccc(OCC(=O)Nc2ccc(N3CCCC3)cc2)c1C,Potency,[1],"inconclusive: 3.98 µM [inhibitor, single point]"
O=c1c(-c2ccccc2)nc2cnc(Oc3cccc(Cl)c3)nc2n1C[C@H]1CCCO1,Potency,[1],"inconclusive: 25.1 µM [activator, single point]"
COCC(N)(c1ccccc1)c1nc2ccccc2n1C (configuration not stated),Potency,[1],"inconclusive: 31.6 µM [inhibitor, single point]"
COc1cc(C)cc2c(-c3c(O)cc(O)c4c3C[C@H](C)N[C@@H]4C)cc(-c3cc(-c4c(O)cc(O)c5c4C[C@H](C)N[C@@H]5C)c4cc(C)cc(OC)c4c3O)c(O)c12,"activity change, negative = inhibition",[1],inactive: -12.5% [at 11 µM]
Cc1cc(C)n2nc3nc(N4CCCCC4)nc(-c4ccco4)c3c2n1,"activity change, negative = inhibition",[1],inconclusive: 29.3%
COc1ccc(S(=O)(=O)Nc2c(C(=O)O)[nH]c3ccccc23)c(OC)c1,"activity change, negative = inhibition",[1],inactive
Cc1ccc2[nH]c(-c3ccccc3)c(CN3CCN(C)CC3)c(=O)c2c1,"activity change, negative = inhibition",[1],inconclusive: 49.9% [at 11 µM]
CC1CCN(CCCNC(=O)c2ccc(CS(=O)(=O)Cc3ccccc3F)o2)CC1,"activity change, negative = inhibition",[1],inconclusive: 33.3%
CC1Cc2ccccc2N1C(=O)CSCC(=O)O (configuration not stated),"activity change, negative = inhibition",[1],inconclusive: 36.3%
Cc1cccc(-c2noc(CN(C(C)C)S(=O)(=O)c3ccc(F)cc3)n2)c1,Potency,[1],"inconclusive: 25.1 µM [activator, single point]"
CC(C)C(NS(=O)(=O)c1cccs1)C(=O)N1CCc2ccccc2C1 (configuration not stated),"activity change, negative = inhibition",[1],inconclusive: 43.4%
CN(C)CCCN1c2ccccc2Sc2cnccc21,"activity change, negative = inhibition",[1],inactive: -3.08% [at 11 µM]
N=C1CCC[C@@H]1C(=S)SCCC(N)=O,"activity change, negative = inhibition",[1],inactive: -2.64% [at 11 µM]
CCc1nc(N2CCOCC2)c(C#N)c2c1COC(C)(C)C2,"activity change, negative = inhibition",[1],inactive
CCCn1c(=NC(=O)c2ccc3c(c2)OCO3)c(C#N)cc2c(=O)n3cccc(C)c3nc21,"activity change, negative = inhibition",[1],inactive
CCOc1ccc2nc(N3CCCN(C(=O)Nc4ccccc4C)CC3)c(C#N)cc2c1,Potency,[1],"inconclusive: 31.6 µM [activator, single point]"
Cc1cc(NC(c2cccnc2)c2ccc3cccnc3c2O)no1 (configuration not stated),Potency,[1],active: 3.98 µM
CC(=O)Nc1ccccc1NC(=O)CC(C)(C)C,"activity change, negative = inhibition",[1],inactive
CCOC(=O)Cc1csc(NC(=O)CSc2nnnn2-c2ccc(CC)cc2)n1,"activity change, negative = inhibition",[1],inconclusive: 57%
Cc1cc(NC(=O)CCC(=O)N(c2ccccc2)C(C(=O)NCC2CCCO2)c2cccnc2)no1 (configuration not stated),"activity change, negative = inhibition",[1],inconclusive: 58.1%
COc1ccccc1CNc1ncnc2ccc(-c3ccc(N(C)C)cc3)cc12,Potency,[1],"inconclusive: 31.6 µM [inhibitor, single point]"
O=C(C1CCC(Cn2c(=O)[nH]c3ccccc3c2=O)CC1)N1CCN(c2ccccc2)CC1 (configuration not stated),"activity change, negative = inhibition",[1],inconclusive: 38.5% [at 2.3 µM]
COc1ccc(-c2nnc(SCC(=O)NC(C)c3ccccc3)o2)cc1 (configuration not stated),"activity change, negative = inhibition",[1],inconclusive: 51.2%
CCc1nc(SCC(=O)c2ccc(C)c(C)c2)n[nH]1,"activity change, negative = inhibition",[1],inconclusive: 65.1% [at 11 µM]
O=C1c2c(O)ccc(O)c2C(=O)c2c(NCCNCCO)ccc(NCCNCCO)c21,Potency,[1],"active: 15.8 µM and inconclusive: 12.6 µM [inhibitor, partial curve]"
COc1ccc(N2C(=O)C3CCCN3C2c2cccc(OC)c2OC)cc1 (configuration not stated),"activity change, negative = inhibition",[1],inconclusive: 48.3%
C#C[C@H](N)CCC(=O)O,"activity change, negative = inhibition",[1],inactive
COc1ccccc1C(=O)Nc1ccc2c(c1)nc(CCNC(C)=O)n2C,"activity change, negative = inhibition",[1],inconclusive: 60.5%
Cc1ccc(O)c(N=CC2=C(O)c3ccccc3C2=O)c1,Potency,[1],"inconclusive: 25.1 µM [inhibitor, single point]"
Cc1ccc2[nH]c(=O)c(CN(Cc3nnnn3Cc3ccccc3)C3CCCC3)cc2c1,"activity change, negative = inhibition",[1],inconclusive: 39.2%
C[C@@]12C(=O)OC(=O)[C@@]1(C)[C@H]1CC[C@@H]2O1,"activity change, negative = inhibition",[1],inconclusive: 61.2%

# Fetched one by one from above (two):
smiles,measurement,setting,value
COc1ccc(C)cc1S(=O)(=O)N(C)CC(=O)Nc1ccccc1,"activity change, negative = inhibition",[1],inconclusive: 40.5%
O=C(C1CCC(Cn2c(=O)[nH]c3ccccc3c2=O)CC1)N1CCN(c2ccccc2)CC1 (configuration not stated),"activity change, negative = inhibition",[1],inconclusive: 38.5% [at 2.3 µM]

# An excerpt from further up, as a working copy:
smiles,measurement,setting,value
COc1ccc(C)cc1S(=O)(=O)N(C)CC(=O)Nc1ccccc1,"activity change, negative = inhibition",[1],inconclusive: 40.5%
Cn1c(=O)oc2cc(S(=O)(=O)NCCC(=O)N3CCc4ccccc43)ccc21,"activity change, negative = inhibition",[1],inactive
